No constants are given. Whether binding was seen depends on the method and setting. Some entries that bind do so weakly or less than the wild type.
T1: CD23 (FCεRII) on human CD23+ cells (human, UniProt P06734 1-321)
T1 sequence (looked up): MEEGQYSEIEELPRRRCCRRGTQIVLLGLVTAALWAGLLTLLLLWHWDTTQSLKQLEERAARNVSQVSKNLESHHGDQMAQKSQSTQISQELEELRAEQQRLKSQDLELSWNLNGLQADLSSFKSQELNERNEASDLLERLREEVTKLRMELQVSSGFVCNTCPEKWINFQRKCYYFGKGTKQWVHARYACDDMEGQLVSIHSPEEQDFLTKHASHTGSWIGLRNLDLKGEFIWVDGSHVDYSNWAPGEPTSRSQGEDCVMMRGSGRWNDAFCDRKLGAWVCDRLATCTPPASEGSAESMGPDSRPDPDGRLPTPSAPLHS

T2: CD23 purified to homogeneity from CHO-transfected cells (human) (UniProt P06734)
T2 sequence (looked up): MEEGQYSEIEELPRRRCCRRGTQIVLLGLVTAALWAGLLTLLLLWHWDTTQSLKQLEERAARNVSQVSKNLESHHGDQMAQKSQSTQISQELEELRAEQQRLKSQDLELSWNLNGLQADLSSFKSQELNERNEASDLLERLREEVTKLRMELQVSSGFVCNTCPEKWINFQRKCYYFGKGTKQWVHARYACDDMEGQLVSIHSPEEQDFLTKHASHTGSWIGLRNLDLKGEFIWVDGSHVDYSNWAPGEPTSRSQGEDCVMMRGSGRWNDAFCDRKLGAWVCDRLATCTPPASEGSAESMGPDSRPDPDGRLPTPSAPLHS

B1: Compound 329 (peptide)
peptide: FHENAPS
B2: Compound 436 (peptide)
peptide: HENAPS
B3: FHSQWPG (p30F) (peptide)
peptide: FHSQWPG
B4: FHENWPS peptide (p30A) (peptide)
peptide: FHENWPS
B5: FHESWPP (p30B) (peptide)
peptide: FHESWPP
B6: FHEFWPL (p30C) (peptide)
peptide: FHEFWPL
B7: FHEFWPT (p30D) (peptide)
peptide: FHEFWPT
B8: FHSQWPN (p30E) (peptide)
peptide: FHSQWPN

Biological target: T1, CD23 (FCεRII) on human CD23+ cells
Test: inhibition of anti-CD23-FITC mAb binding to CD23+ cells; Activity grade

binding, binds:
B1
B2

Biological target: T2, CD23 purified to homogeneity from CHO-transfected cells (human)
Test: biopanning of M13 7-mer phage library on CD23-coated dishes

binding, binds:
B3
B4
B5
B6
B7
B8

Source: patent US20080039402A1 (UNIVERSITE BORDEAUX 2, published 2008)
